Test results from PubChem BioAssay AID504467 (National Center for Advancing Translational Sciences (NCATS), 2011).
Hit rate of the full screen: of about 330,000 compounds, about 7,700 (2.3%) were called active. Inconclusive means that the source gave no clear call. Such entries were picked first, then a sample of the others. Calls follow the shape of the dose curve; as a rule, active = well fitted inhibition curve with a large enough effect; inconclusive = small, poorly fitted or top-dose-only effect, or effect the other way; inactive = flat fitted curve, though single readings scatter. A potency beside an inconclusive call is a rough fit, not a confirmed value.

Experiment: qHTS screen for small molecules that inhibit ELG1-dependent DNA repair in human embryonic kidney (HEK293T) cells expressing luciferase-tagged ELG1; also: nearly all actives have a fitted effect of over 55% in size
Conditions: HEK293T ELG1-luciferase reporter, luminescence, 16 h, DNA damage induced by 5-fluorouridine; activity change, negative = inhibition: at 46.1 µM (top of the series)
Outline: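 Overnight (16 hr) co-exposure of 2,000 cells/well to 5-fluorouridine and compound at 37 °C preceded detection. Luciferase was quantified via ONE-Glo luminescence; loss of signal denotes inhibition.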
% is scaled to controls: 0 for no effect and ±100 for the full control effect; potency is read from the fitted curve at half-maximal effect.

Row | SMILES | Potency | activity change, negative = inhibition
1 | COc1ccc(C(=O)N2CCCC(C(N)=O)C2)cc1S(=O)(=O)N1CCOCC1 (stereo not drawn) | inconclusive: 10.3 µM [activator, partial curve, poor fit] | –
2 | CC(C)N1CCN(Cc2cc3ccccc3[nH]2)CC1CCO (stereo not drawn) | inconclusive: 29.1 µM [activator, single point] | –
3 | Cn1c(O)c(N=NC(=O)c2ccco2)c2ccccc21 | inconclusive: 2.91 µM [activator, partial curve] | –
4 | NCc1cccc(-n2cccn2)c1 | inconclusive: 1.16 µM [inhibitor, single point] | –
5 | CCc1cc(C(=O)N2CCCC(CNS(=O)(=O)c3cccs3)C2)n(C)n1 (stereo not drawn) | inconclusive: 16.4 µM [inhibitor, partial curve] | –
6 | COC(=O)c1ccc(N2CCN(C)CC2)c(NC(=O)COc2ccccc2Cl)c1 | inconclusive: 29.1 µM [activator, single point] | –
7 | CCOC(=O)C1(Cc2ccccc2C)CCCN(C(=O)c2ccc(COC)o2)C1 (stereo not drawn) | inconclusive: 25.9 µM [activator, partial curve] | –
8 | O=C(Nc1ccc(N2CCN(C(=O)c3ccc(Cl)cc3)CC2)cc1)c1cccnc1 | inconclusive: 29.1 µM [inhibitor, single point] | –
9 | O=C(Nc1ccc2snnc2c1)N1CCCCC1 | inconclusive: 18.3 µM [activator, single point] | –
10 | COc1ccc(C(=O)COC(=O)C(CCSC)NC(=O)COc2ccccc2)c(OC)c1 (stereo not drawn) | inconclusive: 20.6 µM [inhibitor, single point] | –
11 | O=C(NC(=S)Nc1ccccc1N1CCCCC1)c1ccc(-c2cccc([N+](=O)[O-])c2)o1 | inconclusive: 8.2 µM [inhibitor, partial curve, poor fit] | –
12 | Cc1ccc2cc(C#N)c(N3CCCN(C(=O)c4cnccn4)CC3)nc2c1 | inconclusive: 20.6 µM [inhibitor, single point] | –
13 | OC1CCN(c2c3c(nc4cc(-c5ccc(Cl)cc5)nn24)CCC3)CC1 | active: 18.4 µM | –
14 | N#CCCn1c(SCC(=O)c2c[nH]c3ccccc23)nc2ccccc21 | – | inactive: -0.925%
15 | O=C(/C=C/c1ccco1)OCC(=O)N1CCCCC1 | inconclusive: 20.6 µM [activator, partial curve] | –
16 | COc1ccc(-c2nc3c(c(=O)c4ccccc4n3C)c(=O)n2Cc2ccccc2)cc1 | – | inactive: 0.575%
17 | Cc1nnc(C)n1/N=C/c1ccc(-c2ccccc2)cc1 | inconclusive: 25.9 µM [activator, single point] | –
18 | Cc1cc(C(=O)c2ccccc2)c(NC(=O)CN2CCOCC2)s1 | – | inactive: 7.26%
19 | FCCCOc1ccc(-c2nccc(-c3ccccn3)n2)cc1 | inconclusive: 11.6 µM [activator, partial curve, poor fit] | –
20 | CC(=O)N(C)c1ccc(NC(=O)c2ccco2)cc1 | inconclusive: 20.6 µM [activator, partial curve] | –
21 | CCOC(=O)/C(C#N)=C/c1c(N2CCN(c3ccccc3)CC2)nc2c(C)cccn2c1=O | – | inactive: -15.7%
22 | CCCCCCSc1ccc(-c2nc3ccccn3c2NCCCC)cc1 | – | inactive: 9.25%

Fetched by structure from above:
Row | SMILES | Potency | activity change, negative = inhibition
7 | CCOC(=O)C1(Cc2ccccc2C)CCCN(C(=O)c2ccc(COC)o2)C1 (stereo not drawn) | inconclusive: 25.9 µM [activator, partial curve] | –
2 | CC(C)N1CCN(Cc2cc3ccccc3[nH]2)CC1CCO (stereo not drawn) | inconclusive: 29.1 µM [activator, single point] | –
13 | OC1CCN(c2c3c(nc4cc(-c5ccc(Cl)cc5)nn24)CCC3)CC1 | active: 18.4 µM | –

(continued)

Row | SMILES | Potency | activity change, negative = inhibition
23 | CCOc1ncccc1C(=O)Nc1cccc(C(=O)Nc2cccc(S(=O)(=O)CCO)c2)c1 | inconclusive: 18.4 µM [inhibitor, partial curve] | –
24 | CCOC(=O)N1CCN(C(=O)C(CC)n2nc(C)c3sc4ccccc4c3c2=O)CC1 (stereo not drawn) | inconclusive: 23.1 µM [inhibitor, single point] | –
25 | Cc1ccc(-c2cc(C(F)F)nc(NCC3CCCO3)n2)cc1 (stereo not drawn) | inconclusive: 29.1 µM [inhibitor, single point] | –
26 | CCCCNc1nc2ccccc2n1CC(=O)N1CCc2ccccc2C1 | inconclusive: 25.9 µM [inhibitor, partial curve, poor fit] | –
27 | CCCCCc1nnc(NC(=O)C2CCCO2)s1 (stereo not drawn) | inconclusive: 20.6 µM [activator, partial curve] | –
28 | CC(C)(c1ccccc1)c1ccc(OCCN2CCOCC2)cc1 | – | inactive: -1.16%
29 | COC(=O)Cc1[nH]nc2c1C(c1ccc(O)c(OC)c1)C(C#N)=C(N)O2 (stereo not drawn) | – | inactive: 1.13%
30 | Cc1cccc(CNC(=O)c2ccccc2N)c1 | inconclusive: 13 µM [activator, partial curve] | –
31 | CCN(CC)c1ccc(/C=N/NC(=O)CNC(=O)c2cccnc2)cc1 | inconclusive: 29.1 µM [activator, single point] | –
32 | COc1cc(-c2nnc(COc3ccc4ccccc4c3)o2)cc(OC)c1OC | inconclusive: 32.6 µM [inhibitor, single point] | –
33 | CCOc1cc(C(=O)NCC(=O)N/N=C/c2sccc2C)cc(OCC)c1OCC | inconclusive: 23.1 µM [inhibitor, single point] | –
34 | COc1cccc(NC(=O)CSc2nnc(NC(=O)c3ccco3)s2)c1 | inconclusive: 20.6 µM [activator, partial curve] | –
35 | O=C(Nc1ccn(Cc2ccccc2F)n1)c1ccc(COc2cccc(Br)c2)cc1 | inconclusive: 2.31 µM [activator, partial curve] | –
36 | CCOC(=O)c1ccc(-n2c(C)nc3ccccc3c2=O)cc1 | inconclusive: 11.6 µM [inhibitor, partial curve, poor fit] | –
37 | COc1ccccc1N1CCN(C(=O)C(Sc2ccccc2)c2ccccc2)CC1 (stereo not drawn) | inconclusive: 29.1 µM [inhibitor, single point] | –
38 | COc1ccc(S(=O)(=O)N2CCCC(C(=O)N3CCN(c4ccccc4)CC3)C2)cc1Cl (stereo not drawn) | inconclusive: 20.6 µM [inhibitor, single point] | –
39 | CNC(=S)N(CCc1c(C)[nH]c2ccc(OC)cc12)Cc1ccco1 | – | inactive: -22.8%
40 | O=c1c2cc(Cl)ccc2[nH]c(=S)n1Cc1ccccn1 | inconclusive: 20.6 µM [activator, partial curve, poor fit] | –
41 | O=C(CC1SCCNC1=O)Nc1ccc(Cl)c(Cl)c1 (stereo not drawn) | inconclusive: 29.1 µM [activator, single point] | –
42 | O=C(Nc1ccccc1-c1ccccc1)NC1CC2CCCC(C1)N2Cc1ccc(F)cc1 (stereo not drawn) | – | inactive: -15.7%
43 | Cc1ccc(C(=O)NN2C(=O)/C(=C/c3cccn3C)SC2=S)cc1 | inconclusive: 29.1 µM [activator, partial curve, poor fit] | –
